Experimental data published in paper PMC8667911.
Results are given in words; binding and its absence hold for the method and conditions named.

By UniProt entry, the sequences of proteins in these tests, tags left out.
UniProt P9WJF4: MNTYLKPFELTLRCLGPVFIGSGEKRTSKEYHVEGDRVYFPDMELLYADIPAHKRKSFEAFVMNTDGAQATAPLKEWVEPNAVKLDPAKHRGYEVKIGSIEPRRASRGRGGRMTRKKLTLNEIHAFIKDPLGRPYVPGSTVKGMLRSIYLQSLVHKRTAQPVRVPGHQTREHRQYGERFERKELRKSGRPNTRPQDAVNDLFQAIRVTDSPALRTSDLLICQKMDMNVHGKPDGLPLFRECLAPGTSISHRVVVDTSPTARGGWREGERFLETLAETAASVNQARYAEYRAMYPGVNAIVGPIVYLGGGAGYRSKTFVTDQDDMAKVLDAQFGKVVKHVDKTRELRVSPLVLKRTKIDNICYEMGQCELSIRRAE
UniProt P9WPJ1: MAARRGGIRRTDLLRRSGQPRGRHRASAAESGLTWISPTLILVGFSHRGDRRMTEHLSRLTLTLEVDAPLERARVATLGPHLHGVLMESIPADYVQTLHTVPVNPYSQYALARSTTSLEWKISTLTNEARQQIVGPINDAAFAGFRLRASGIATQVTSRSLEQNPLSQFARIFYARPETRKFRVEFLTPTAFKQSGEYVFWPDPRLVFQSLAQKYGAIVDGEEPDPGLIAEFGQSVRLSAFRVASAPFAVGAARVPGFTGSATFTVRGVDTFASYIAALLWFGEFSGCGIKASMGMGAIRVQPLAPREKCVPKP

How the values were obtained:
Assay in all cases: native gel or EMSA
[1] = biological target: T1, M. tuberculosis CRISPR/Cas protein Csm1 (secreted, in culture filtrate) (M. tuberculosis H37Rv (endogenous in culture filtrate)) (UniProt P71629)
T1 sequence: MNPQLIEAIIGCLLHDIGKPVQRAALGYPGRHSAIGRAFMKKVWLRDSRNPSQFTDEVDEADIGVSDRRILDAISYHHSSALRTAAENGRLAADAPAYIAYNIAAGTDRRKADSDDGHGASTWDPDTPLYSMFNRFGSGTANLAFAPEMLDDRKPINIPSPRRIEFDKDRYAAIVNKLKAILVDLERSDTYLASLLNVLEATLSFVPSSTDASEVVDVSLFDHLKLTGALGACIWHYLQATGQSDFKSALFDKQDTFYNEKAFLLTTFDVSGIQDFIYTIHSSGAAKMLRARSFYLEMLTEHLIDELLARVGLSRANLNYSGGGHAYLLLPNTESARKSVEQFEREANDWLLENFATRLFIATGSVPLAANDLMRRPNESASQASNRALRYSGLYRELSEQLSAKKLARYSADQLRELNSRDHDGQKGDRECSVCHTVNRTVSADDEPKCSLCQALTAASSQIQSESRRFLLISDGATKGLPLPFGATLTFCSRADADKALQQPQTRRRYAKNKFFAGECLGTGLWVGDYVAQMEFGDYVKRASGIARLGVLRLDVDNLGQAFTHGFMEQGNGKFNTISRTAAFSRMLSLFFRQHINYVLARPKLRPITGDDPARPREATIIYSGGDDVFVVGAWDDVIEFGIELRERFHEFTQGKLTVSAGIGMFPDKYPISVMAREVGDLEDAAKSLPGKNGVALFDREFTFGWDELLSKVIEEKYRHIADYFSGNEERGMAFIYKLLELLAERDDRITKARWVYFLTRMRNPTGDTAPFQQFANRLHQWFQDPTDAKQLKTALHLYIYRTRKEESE

[2] = biological target: M. tuberculosis CRISPR/Cas protein Csm5 (secreted, in culture filtrate) (M. tuberculosis H37Rv (endogenous in culture filtrate)) (UniProt P9WJF4)
[3] = biological target: T2, M. tuberculosis CRISPR/Cas protein Csm2 (secreted, in culture filtrate) (M. tuberculosis H37Rv (endogenous in culture filtrate)) (UniProt P9WJG0)
T2 sequence: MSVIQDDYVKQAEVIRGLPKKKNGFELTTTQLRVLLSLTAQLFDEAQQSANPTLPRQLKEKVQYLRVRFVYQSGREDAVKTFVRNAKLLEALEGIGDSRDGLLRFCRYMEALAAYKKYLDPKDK

[4] = biological target: T3, M. tuberculosis CRISPR/Cas protein Csm3 (secreted, in culture filtrate) (M. tuberculosis H37Rv (endogenous in culture filtrate)) (UniProt P9WJF8)
T3 sequence: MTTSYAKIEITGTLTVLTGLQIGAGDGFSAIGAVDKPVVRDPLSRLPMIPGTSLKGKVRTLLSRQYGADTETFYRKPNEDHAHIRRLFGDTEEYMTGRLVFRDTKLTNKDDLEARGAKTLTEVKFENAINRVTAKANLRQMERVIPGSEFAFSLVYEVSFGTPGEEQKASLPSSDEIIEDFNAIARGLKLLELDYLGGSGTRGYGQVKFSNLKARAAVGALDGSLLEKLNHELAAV

Measured: binding

M. tuberculosis Cas6 (Rv2824c) (secreted, in culture filtrate) (from UniProt P9WPJ1 1-314)
no binding: all assays above
